# Assay results: patent publication US8313752B2, “Macrocyclic lactone combination compositions, vaccines and methods for producing same” (Merial Limited, priority 2009, dated 2012)
# “And” between values parts separate entries of the source, which are not always exact repeats. Equal entries are not always repeated. For at least one compound, name, drawing or mass did not settle the structure.
# System: cattle
# Experiment: Local tissue irritancy / injection site reactions after intramuscular injection
# Assay type: in vivo, Dairy cows (Friesian and Friesian cross)
# Conditions: ML/Rotavec Corona combination, width, length and depth, individual cows, dash = no reaction
# Description: Study Objectives: 1) To measure ML residues in milk and tissues of lactating dairy cows after a single dose of an experimental formulation of eprinomectin, ivermectin, moxidectin or doramectin combined with an inactivated rotavirus, coronavirus and Escherichia coli vaccine was administered by intramuscular injection at 0.3 and 0.4 mg macrocyclic lactone/kg bodyweight. 2) To evaluate local tissue irritancy of the experimental formulations when administered to cattle by intramuscular injection.
# The formulations were administered by deep intramuscular injection in the anterior neck region. Injection sites were clean and dry and inspected for lesions prior to injection. Injections were administered with a different 10 mL syringe for each product. A sterile 18 gauge 1½ inch needle was used for each injection. The time of treatment was recorded. Evidence of pain on injection was assessed.
# Injection sites were examined by inspection and palpation at the morning milking on Days 1, 3, 7 and 14. Any visible or palpable reactions were described and measured (width, length and depth). Reactions that persisted after day 14 were re-evaluated on Day 21.
structure (smiles),measurement,setting,value
CCC(C)C1OC2(C=CC1C)CC1CC(CC=C(C)C(OC3CC(OC)C(OC4CC(OC)C(NC(C)=O)C(C)O4)C(C)O3)C(C)C=CC=C3COC4C(O)C(C)=CC(C(=O)O1)C34O)O2 (stereo not shown) [Eprinomectin],"Injection site reaction measurements, Day 3",0.3 mg/kg IM,70 × 110 × 10
same,"Injection site reaction measurements, Day 7",0.3 mg/kg IM,50 × 50 × 15
same,"Injection site reaction measurements, Day 14",0.3 mg/kg IM,30 × 30 × 10
same,"Injection site reaction measurements, Day 21",0.3 mg/kg IM,20 × 20 × 10
same,"Injection site reaction measurements, Day 1","0.3 mg/kg IM, listed as EPN",40 × 50 × 5 and 60 × 40 × 5
same,"Injection site reaction measurements, Day 7",0.4 mg/kg IM,90 × 110 × 15
same,"Injection site reaction measurements, Day 14",0.4 mg/kg IM,70 × 90 × 15
same,"Injection site reaction measurements, Day 21",0.4 mg/kg IM,70 × 70 × 10
same,"Injection site reaction measurements, Day 1","0.4 mg/kg IM, listed as EPN",80 × 110 × 10 and 70 × 110 × 10
same,"Injection site reaction measurements, Day 3","0.4 mg/kg IM, listed as EPN",80 × 110 × 10 and 40 × 50 × 5
